Experimental data: US20130142734A1, “TARGETED DELIVERY SYSTEMS FOR DIAGNOSTIC APPLICATIONS” (priority 2010, published 2013)
Some of these results come from one statement about several compounds together.

Test system: SW-480 cells
Experiment: Imaging of orthotopically implanted SW-480 colon tumors in nu/nu athymic mice
Assay type: in vivo
Conditions: 2 mg i.v.; orthotopic SW-480 tumors
Experimental: Three types of mouse models were employed to test the ability of the probes to detect solid tumors in the GI tract.
Nu/nu athymic mice were injected orthotopically into the descending colon of female with SW-480 cells. After tumors reached ˜0.5 cm in diameter, mice were injected i.v. with 2 mg of IR-783 bearing polymeric probe. The results in the orthotopically implanted tumors confirm the accumulation of both P-(GGFLGK (SEQ ID NO: 11)-IR783)2.5% and P-(GGFLGK (SEQ ID NO: 11)-IR783)7.5% polymeric probes in tumor area about 4 h post injection and retention at the tumor site for at least 48 h.
Biodistribution analysis indicated the presence of the probe in the tumor, kidneys, galbladder and the urine. The T/B ratio following whole body imaging (WBI) was 2.4 in mice treated with P-(GGFLGK (SEQ ID NO: 11)-IR783)7.5%, 4 h post injection (FIG. 6). […] The calculated ratio of the average fluorescence efficiency between colon and tumor tissue was ˜9 (FIG. 7).

Substance | retention at the tumor site
P-(GGFLGK-IR783)7.5%: HPMA copolymer bearing IR-783-S-Ph-COOH via degradable (CB cleavable) GGFLGK linker, 7.5% dye loading | at least 48 h
P-(GGFLGK-IR783)2.5%: HPMA copolymer bearing IR-783-S-Ph-COOH via degradable GGFLGK linker, 2.5 mol % dye loading | at least 48 h
